PubChem BioAssay AID1053208 | Peter MacCallum Cancer Centre – 2014

- Purpose: 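Genes whose silencing cuts survival of bone tumour cells only with doxorubicin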 (primary screen)
- Cells: mouse osteosarcoma cells, early-passage culture from an engineered mouse model of fibroblastic bone tumour
- Knock-down reagent: siRNA pool against mouse genes, 40 nM
- Timing: about 120 h (48 h before drug, then 72 h with drug)
- Conditions: doxorubicin 100 nM for 72 h, roughly 30-40% inhibitory dose
- Measured: 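Luminescent ATP signal taken as viability with or without 100 nM doxorubicin for 72 h; mean of two wells set against non-targeting siRNA and turned into robust z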
- Direction: viability z-score with doxorubicin and doxorubicin viability vs non-targeting: higher = more viable cells under doxorubicin; viability z-score without drug: higher = more viable cells with knock-down alone; z-score of drug to no-drug ratio: higher = less drug sensitisation by knock-down
- Call rule: 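a pool counts as active when its viability z-score with doxorubicin is -2 or below and its z-score without drug lies between -2 and 2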
Here is a random part of about 17,000 reagents. Of all reagents, 788 (4.7%) are marked active. 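Calls rest on z-score classes alone; an extra cut-off of viability at most 70% of control was not applied to them.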

The opening 2 entries as a preview:
| target | combined z-score class | viability z-score with doxorubicin | viability z-score without drug | z-score of drug to no-drug ratio | doxorubicin viability vs non-targeting | activity call |
| --- | --- | --- | --- | --- | --- | --- |
| Ap1m2 | high cell count without drug only | 0.22 | 2.53 | -1.24 | 0.96 | inactive |
| B3galt2 | no change with or without drug | 0.45 | 0.84 | 0 | 0.98 | inactive |

The list itself, from the first entry:
| target | combined z-score class | viability z-score with doxorubicin | viability z-score without drug | z-score of drug to no-drug ratio | doxorubicin viability vs non-targeting | activity call |
| --- | --- | --- | --- | --- | --- | --- |
| Ap1m2 | high cell count without drug only | 0.22 | 2.53 | -1.24 | 0.96 | inactive |
| B3galt2 | no change with or without drug | 0.45 | 0.84 | 0 | 0.98 | inactive |
| Sult1c1 | no change with or without drug | -0.22 | -1.01 | 0.56 | 0.92 | inactive |
| Tomm20 | no change with or without drug | 1.12 | -0.17 | 1.46 | 1.04 | inactive |
| Tcf7l1 | high cell count with doxorubicin only | 2.02 | 1.18 | 1.35 | 1.12 | inactive |
| Or2b7 | low cell count with doxorubicin only | -2.92 | -1.18 | -2.36 | 0.68 | active |
| Magoh | low cell count with doxorubicin only | -2.02 | -1.01 | -1.46 | 0.76 | active |
| Mymk | no change with or without drug | 1.24 | 1.52 | 0.34 | 1.05 | inactive |
| Vps18 | no change with or without drug | -0.9 | -1.35 | 0.11 | 0.86 | inactive |
| Tespa1 | no change with or without drug | -1.24 | -0.67 | -0.79 | 0.83 | inactive |
| Shprh | low cell count with doxorubicin only | -2.36 | -1.52 | -1.46 | 0.73 | active |
| Zar1 | no change with or without drug | 0 | 0.51 | -0.22 | 0.94 | inactive |
| Hoxa13 | no change with or without drug | 0.56 | -1.18 | 1.57 | 0.99 | inactive |
| Clca2 | no change with or without drug | -0.45 | -0.84 | 0.22 | 0.9 | inactive |
| Nrk | no change with or without drug | 0.67 | 0.51 | 0.45 | 1 | inactive |
| Pknox2 | no change with or without drug | 0.67 | 1.18 | 0 | 1 | inactive |
| Plrg1 | no change with or without drug | -0.45 | -0.84 | 0.22 | 0.9 | inactive |
| Or4m1 | no change with or without drug | -0.22 | -0.84 | 0.45 | 0.92 | inactive |
| Ang3 | no change with or without drug | -0.67 | -1.52 | 0.45 | 0.88 | inactive |
| Ift57 | no change with or without drug | 1.24 | 1.01 | 0.67 | 1.05 | inactive |
| Pde8a | no change with or without drug | -0.22 | -0.67 | 0.34 | 0.92 | inactive |
| Meis2 | no change with or without drug | 0.67 | 0.17 | 0.67 | 1 | inactive |
| Dock7 | no change with or without drug | 1.12 | 1.35 | 0.34 | 1.04 | inactive |
| Rdx | no change with or without drug | -1.8 | -1.35 | -0.9 | 0.78 | inactive |
| Vmn1r8 | no change with or without drug | 0.34 | -0.84 | 1.12 | 0.97 | inactive |
| Dusp8 | no change with or without drug | 0.11 | -0.84 | 0.9 | 0.95 | inactive |
| Zeb2 | no change with or without drug | 0.67 | 1.52 | -0.22 | 1 | inactive |
| Pcdhb19 | no change with or without drug | 0.56 | -0.34 | 0.9 | 0.99 | inactive |
| Tmem183a | no change with or without drug | 1.12 | -0.84 | 2.02 | 1.04 | inactive |
| Gpr63 | no change with or without drug | 0 | 0.17 | 0 | 0.94 | inactive |
| Dclk1 | no change with or without drug | 0.9 | -0.34 | 1.35 | 1.02 | inactive |
| Fcgr2b | no change with or without drug | -0.22 | 1.52 | -1.12 | 0.92 | inactive |
| BC002059 | no change with or without drug | 0.67 | -0.34 | 1.12 | 1 | inactive |
| BC027092 | no change with or without drug | 1.46 | 0.34 | 1.35 | 1.07 | inactive |
| Sun2 | no change with or without drug | -0.22 | 0.34 | -0.34 | 0.92 | inactive |
| Scamp4 | low cell count with doxorubicin only | -2.02 | 1.18 | -2.59 | 0.76 | active |
| Ccnf | no change with or without drug | -0.34 | 1.18 | -1.01 | 0.91 | inactive |
| Fads6 | no change with or without drug | 0 | 0.84 | -0.45 | 0.94 | inactive |
| Nfkbib | no change with or without drug | 1.69 | 0.17 | 1.8 | 1.09 | inactive |
| CHD3 | no change with or without drug | -1.57 | -0.17 | -1.46 | 0.8 | inactive |
| Mpp3 | no change with or without drug | 0 | 1.85 | -1.01 | 0.94 | inactive |
| Sgpp1 | no change with or without drug | -1.35 | -1.52 | -0.34 | 0.82 | inactive |
| Il7r | no change with or without drug | 0 | -0.51 | 0.45 | 0.94 | inactive |
| Mrpl30 | no change with or without drug | -0.11 | -0.34 | 0.22 | 0.93 | inactive |
| Nxnl2 | no change with or without drug | -0.45 | 0.51 | -0.67 | 0.9 | inactive |
| Arf5 | no change with or without drug | -0.79 | -1.18 | 0.11 | 0.87 | inactive |
| Best2 | low cell count with doxorubicin only | -2.25 | 0.34 | -2.47 | 0.74 | active |
| Klhdc10 | low cell count with doxorubicin only | -2.02 | -0.51 | -1.69 | 0.76 | active |
| Phaf1 | no change with or without drug | -1.12 | -0.67 | -0.67 | 0.84 | inactive |
| Fcrl1 | no change with or without drug | -1.46 | -1.18 | -0.67 | 0.81 | inactive |
